From PMC11996839 come the findings set out here.

By UniProt entry, the sequences of proteins in these tests, tags left out.
UniProt Q99942: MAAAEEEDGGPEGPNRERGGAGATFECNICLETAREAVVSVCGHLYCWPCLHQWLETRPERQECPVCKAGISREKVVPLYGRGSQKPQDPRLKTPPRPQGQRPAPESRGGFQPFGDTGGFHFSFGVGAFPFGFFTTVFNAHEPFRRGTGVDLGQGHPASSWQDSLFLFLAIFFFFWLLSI
UniProt Q13200: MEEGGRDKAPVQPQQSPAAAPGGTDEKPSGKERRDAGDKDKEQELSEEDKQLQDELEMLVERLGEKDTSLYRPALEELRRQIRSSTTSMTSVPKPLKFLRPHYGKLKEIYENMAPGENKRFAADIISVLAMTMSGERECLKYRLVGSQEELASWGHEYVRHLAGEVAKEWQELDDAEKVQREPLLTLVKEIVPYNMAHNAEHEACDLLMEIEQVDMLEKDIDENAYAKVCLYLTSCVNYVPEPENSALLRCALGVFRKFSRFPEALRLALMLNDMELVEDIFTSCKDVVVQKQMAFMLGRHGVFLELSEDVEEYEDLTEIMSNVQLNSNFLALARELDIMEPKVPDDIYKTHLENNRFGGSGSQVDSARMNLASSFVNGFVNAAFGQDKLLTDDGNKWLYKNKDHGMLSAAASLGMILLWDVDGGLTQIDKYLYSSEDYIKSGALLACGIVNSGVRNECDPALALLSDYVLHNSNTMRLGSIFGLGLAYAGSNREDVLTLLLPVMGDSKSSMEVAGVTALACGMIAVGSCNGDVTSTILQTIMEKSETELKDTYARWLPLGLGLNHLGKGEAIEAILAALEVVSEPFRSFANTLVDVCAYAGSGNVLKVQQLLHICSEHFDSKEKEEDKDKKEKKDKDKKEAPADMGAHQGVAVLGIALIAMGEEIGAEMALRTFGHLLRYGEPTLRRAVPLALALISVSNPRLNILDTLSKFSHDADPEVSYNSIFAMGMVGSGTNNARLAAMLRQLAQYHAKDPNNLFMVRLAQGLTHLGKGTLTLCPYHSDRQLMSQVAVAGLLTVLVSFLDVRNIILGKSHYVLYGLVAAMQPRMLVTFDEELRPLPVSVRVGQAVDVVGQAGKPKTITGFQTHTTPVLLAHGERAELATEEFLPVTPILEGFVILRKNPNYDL

No constants are given. Whether binding was seen depends on the method and setting. Binding seen in cells or lysates may run through a third protein. Some results given as binding are weak or reduced against the parent protein; the word gives no strength.

This experiment deals with Flag-tagged RNF5 (RING finger protein 5), wild type, expressed in HepG2 cells (UniProt Q99942). In words: co-IP.

As for “endogenous proteasome 26S subunit non-ATPase 2 (PSMD2) of HepG2 cells (from UniProt Q13200 1-908)”, the binding result is “binds”.
